Laboratory results as given in patent publication US8784898B2, “Methods of wound care and treatment” (Revalesio Corporation, priority 2006, dated 2014).
For at least one compound, name, drawing or mass did not settle the structure.

Test system: ovalbumin sensitization model (allergic asthma)
Test: Brown Norway rat ovalbumin sensitization model with Budesonide
Format: in vivo, Brown Norway rats

## CCCC1O[C@@H]2C[C@H]3[C@@H]4CCC5=CC(=O)C=C[C@]5(C)[C@H]4[C@@H](O)C[C@]3(C)[C@]2(C(=O)CO)O1 (stereo partly shown) [Budesonide]
6 and 24 hours post challenge
  blood level of eotaxin: reduced the blood eotaxin levels
blood, challenged animals
  Eosinophil %: did not have a significant effect
blood, challenged animals, relative to normal saline alone
  total eosinophil count: reduced the total eosinophil count
Immediately after the challenge
  tidal volume: no change in tidal volumes
